{"source": "PubChem BioAssay AID493014", "about": "(National Center for Advancing Translational Sciences (NCATS), 2011)", "note": "Out of some 340,000 compounds screened, about 170 (0.05%) were called active. This list was built around the results that the source calls inconclusive (neither active nor inactive); the mix of calls is not that of the screen. Calls follow the shape of the dose curve; as a rule, active = well fitted inhibition curve with a large enough effect in the signal ratio, with a control signal flat (not every such curve was filed as active); inconclusive = small, poorly fitted or top-dose-only effect, or effect the other way, or a change in a side signal; inactive = flat fitted curve, though single readings scatter; the % refers to the signal ratio. A potency beside an inconclusive call is a rough fit, not a confirmed value. Potency is read from the fitted curve at half-maximal effect."}
{"experiment": "qHTS Assay to Find Inhibitors of Chronic Active B-Cell Receptor Signaling;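 as to activity change, negative = inhibition: plate controls were basal doxycycline-induced cells for no effect and cells given 10 µM MG132 for full effect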", "settings": "ABC-DLBCL IkBa-CBG/CBR reporter, luminescence ratio (green luciferase fused to IkBa over red control in TMD8 lymphoma cells), 4 h; activity change, negative = inhibition: at 46.1 µM (top of the series)", "procedure,_shortened": "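Concentration-response series (up to 46 uM) were applied to TMD8 dual-reporter cells for 4 h at 37C with doxycycline. Green/red ratio, after filter-overlap correction, defined %Activity; red signal alone was normalised to basal cells and zero luminescence.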"}
{"smiles": "Cc1c(NC(=O)C(C)OC(=O)COc2ccc(C#N)cc2)c(=O)n(-c2ccccc2)n1C", "note": "(stereo unspecified)", "activity change, negative = inhibition": "inactive"}
{"smiles": "c1ccc(N/N=C2\\CCCc3ccccc32)nc1", "activity change, negative = inhibition": "inconclusive: 12.8%"}
{"smiles": "COC(=O)c1ccc(NC(=O)CSc2nnc(CNc3ccc(F)cc3)n2C)cc1", "activity change, negative = inhibition": "inconclusive: 15.3%"}
{"smiles": "COc1ccc(-c2cc(C3CCN(c4ccc(C(C)=O)cc4[N+](=O)[O-])CC3)[nH]n2)cc1", "activity change, negative = inhibition": "inconclusive: -18%"}
{"smiles": "CCOc1cc(N2CCOCC2)c(OCC)cc1NC(=O)c1cccc(S(=O)(=O)N2CCOCC2)c1", "activity change, negative = inhibition": "inconclusive: -2.06%"}
{"smiles": "CC[n+]1c(C)sc2cc(C)ccc21", "Potency": "inconclusive: 35.5 µM [falling, single point]"}
{"smiles": "CNC(=S)N/N=C(\\C)c1ccc(C)c(C)c1", "Potency": "inconclusive: 23.1 µM [cytotoxic, single point]"}
{"smiles": "CC(OCC(O)CN(C)Cc1nc2ccccc2c(=O)[nH]1)c1ccc(Cl)cc1", "note": "(stereo unspecified)", "activity change, negative = inhibition": "inconclusive: -8.97%"}
{"smiles": "CC(C)Nc1ccc(C(CC(N)=O)NC(=O)Cc2cccc3ccccc23)cc1[N+](=O)[O-]", "note": "(stereo unspecified)", "activity change, negative = inhibition": "inconclusive: -0.877%"}
{"smiles": "Cn1c(=O)c2c(nc(NCc3cccnc3)n2Cc2ccccc2Cl)n(C)c1=O", "activity change, negative = inhibition": "inactive"}
{"smiles": "Cc1ccc(C)c(Nc2ncnc3c2cnn3-c2ccc(F)cc2)c1", "activity change, negative = inhibition": "inconclusive: -23.7%"}
{"smiles": "CCOC(=O)C1CCN(C(=O)CC2(CC(=O)O)CCCC2)CC1", "activity change, negative = inhibition": "inconclusive: 2.83%"}
{"smiles": "O=C(NCCc1ccc(F)cc1)N[C@@H](Cc1ccccc1)C(=O)O", "activity change, negative = inhibition": "inactive"}
{"smiles": "Cc1ncoc1C(=O)NCc1ccccc1Cl", "Potency": "inconclusive: 35.5 µM [falling, partial curve, poor fit]"}
{"smiles": "COc1ccc(C)cc1NS(=O)(=O)c1ccc(-c2cnc(C3CC3)o2)cc1", "Potency": "inconclusive: 7.94 µM [falling, partial curve]"}
{"smiles": "Cc1cc2ncc(C(=O)Nc3ccccc3)c(C)n2n1", "activity change, negative = inhibition": "inconclusive: 15.9%"}
{"smiles": "O=C1OC(C(=O)O)Cc2ccccc21", "note": "(stereo unspecified)", "activity change, negative = inhibition": "inconclusive: 13.2%"}
{"smiles": "CCOc1ccc(/C=C/C(=O)c2cc(Br)ccc(=O)c2O)cc1", "Potency": "inconclusive: 8.2 µM [falling, partial curve, poor fit]"}
{"smiles": "CCCCCCCC/C=C\\CCCCCCCC(=O)O", "activity change, negative = inhibition": "inactive"}
{"smiles": "Nc1nc(Cl)cc(Sc2ccc(F)cc2)n1", "activity change, negative = inhibition": "inconclusive: -0.587%"}
{"smiles": "Cc1ccc(-c2c(C)sc3ncn(CC(=O)N4CCOCC4)c(=O)c23)cc1C", "activity change, negative = inhibition": "inconclusive: -6%"}
{"smiles": "COc1ccc(CCNC(=O)c2c[nH]n3c(=O)c(Cc4ccccc4Cl)c(C)nc23)cc1OC", "activity change, negative = inhibition": "inconclusive: -0.504%"}
{"smiles": "CCc1cc2c(=O)c(-c3nc4ccccc4[nH]3)coc2c(CN2CCCCC2C)c1O", "note": "(stereo unspecified)", "Potency": "inconclusive: 22.4 µM [falling, partial curve, poor fit]"}
{"smiles": "Cc1nc(S(=O)(=O)N(C)c2ccccc2)c(C#N)c(C)c1Cl", "activity change, negative = inhibition": "inconclusive: -5.27%"}
{"smiles": "CCOc1cc(N2CCOCC2)c(OCC)cc1NS(=O)(=O)c1ccc(Cl)s1", "activity change, negative = inhibition": "inconclusive: -29.6%"}
{"smiles": "N#C/C(=C\\c1cccc(Oc2ccccc2)c1)C(=O)N1CCOCC1", "activity change, negative = inhibition": "inactive"}
{"smiles": "O=C1CCC(=O)O1", "activity change, negative = inhibition": "inactive"}
{"smiles": "COc1cccc(C(=O)Nc2ccc3nc(N4CCN(c5ncccn5)CC4)cc(C)c3c2)c1OC", "activity change, negative = inhibition": "inconclusive: -18.6%"}
{"smiles": "O=c1c(Sc2ccccc2)c(C(F)(F)F)[nH]n1-c1ccccc1", "Potency": "inconclusive: 29.1 µM [falling, single point]"}
{"smiles": "COC(=O)C1C(=O)CC(C)(O)C(C(=O)OC)C1c1ccccc1F", "note": "(stereo unspecified)", "activity change, negative = inhibition": "inconclusive: -19.3%"}
{"smiles": "CCOc1ccc(C(=O)NC(=S)Nc2ccccn2)cc1[N+](=O)[O-]", "Potency": "inconclusive: 7.08 µM [falling, partial curve]"}
{"smiles": "O=C(CCCn1c(=O)[nH]c2ccccc2c1=O)N1CCN(c2ccccn2)CC1", "activity change, negative = inhibition": "inactive"}
{"smiles": "Cc1ccc(C(C2C(=O)CC(C)(C)CC2=O)C2C(=O)CC(C)(C)CC2=O)s1", "activity change, negative = inhibition": "inconclusive: -0.0461%"}
{"smiles": "O=C(NCc1ccc2c(c1)OCO2)Nc1ccc(Cl)cc1", "activity change, negative = inhibition": "inconclusive: -13.2%"}
{"smiles": "O=c1oc2ccccc2c(Nc2ccccc2O)c1[N+](=O)[O-]", "activity change, negative = inhibition": "inconclusive: -22.9%"}
{"smiles": "CN(C)c1ccc(NC(=S)NC(=O)/C=C/c2ccc(Cl)cc2)cc1", "Potency": "inconclusive: 23.1 µM [rising, partial curve, poor fit]"}
{"smiles": "C[C@@H]1C[C@@H]2OC(=O)[C@]3(C)[C@H]2[C@@H](OC3(C)O)[C@]2(C)C(=O)C=C[C@H]12", "note": "(stereo partly specified)", "Potency": "inconclusive: 12.6 µM [falling, single point]"}
{"smiles": "O=C(N/N=C/c1ccccn1)c1cc(-c2ccccc2Cl)n[nH]1", "Potency": "inconclusive: 15.8 µM [falling, partial curve]"}
{"smiles": "O=c1cc(C(F)(F)F)[nH]c2ccc(OC(F)(F)F)cc12", "Potency": "inconclusive: 35.5 µM [falling, single point]"}
{"smiles": "O=C(COc1ccc([N+](=O)[O-])cc1)NNC(=S)NC(=O)c1ccc(Br)cc1", "activity change, negative = inhibition": "inconclusive: 3.2%"}
{"smiles": "CCCCOc1ccc(Cl)cc1CSc1nncn1N", "activity change, negative = inhibition": "inconclusive: 4.19%"}
{"smiles": "CCC(C)NC(=O)CSc1nc(-c2cccs2)cc(C(F)(F)F)n1", "note": "(stereo unspecified)", "activity change, negative = inhibition": "inactive"}
{"smiles": "O=C1c2ccc([N+](=O)[O-])cc2NC(c2ccco2)N1/N=C/c1ccco1", "note": "(stereo unspecified)", "activity change, negative = inhibition": "inconclusive: 4.89%"}
{"smiles": "Cc1nnc(Sc2cc(NCCO)c([N+](=O)[O-])c3nonc23)s1", "activity change, negative = inhibition": "inconclusive: 14.5%"}
{"smiles": "O=C1CC(=O)N(Cc2ccco2)C(=O)N1", "activity change, negative = inhibition": "inactive"}
{"smiles": "Cc1ccccc1C(=O)OCc1nnc(-c2ccc(Cl)cc2)o1", "Potency": "inconclusive: 35.5 µM [falling, single point]"}
{"smiles": "CC(=O)N1CCN(c2cc(N3CCc4ccccc4C3)c(F)cc2[N+](=O)[O-])CC1", "activity change, negative = inhibition": "inconclusive: -4.71%"}
{"smiles": "Cn1c2ccccc2c2cc([N+](=O)[O-])ccc21", "activity change, negative = inhibition": "inconclusive: 13.4%"}
{"smiles": "CCOC(=O)c1ccc(NC(=S)N2CCSC2c2ccc(OC)cc2)cc1", "note": "(stereo unspecified)", "Potency": "inconclusive: 29.1 µM [falling, single point]"}
{"smiles": "COCCn1c(-c2ccc(OC)cc2)cnc1SCC(=O)Nc1cc(C)on1", "activity change, negative = inhibition": "inconclusive: -16.8%"}
{"smiles": "CCNC(=O)COC(=O)/C=C/c1cccc(F)c1", "activity change, negative = inhibition": "inconclusive: -39.7%"}
